Laboratory results taken from article PMC9146606.
Results are given in words; binding and its absence hold for the method and conditions named. Binding seen in cells or lysates may run through a third protein. Some entries that bind do so weakly or less than the wild type.

Sequences of proteins named here, by UniProt entry; tags and fusion partners are left off.
UniProt P16791: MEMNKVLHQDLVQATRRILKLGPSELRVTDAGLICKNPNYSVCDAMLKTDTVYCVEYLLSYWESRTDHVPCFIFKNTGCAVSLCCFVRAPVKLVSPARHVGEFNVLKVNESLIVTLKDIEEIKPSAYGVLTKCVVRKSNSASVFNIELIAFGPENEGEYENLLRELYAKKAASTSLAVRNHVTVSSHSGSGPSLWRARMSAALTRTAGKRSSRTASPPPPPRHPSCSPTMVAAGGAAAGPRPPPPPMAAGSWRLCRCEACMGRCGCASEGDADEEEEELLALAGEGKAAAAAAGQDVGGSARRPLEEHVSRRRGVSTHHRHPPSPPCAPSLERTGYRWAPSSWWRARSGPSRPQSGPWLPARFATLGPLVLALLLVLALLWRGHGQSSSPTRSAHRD
UniProt P06493: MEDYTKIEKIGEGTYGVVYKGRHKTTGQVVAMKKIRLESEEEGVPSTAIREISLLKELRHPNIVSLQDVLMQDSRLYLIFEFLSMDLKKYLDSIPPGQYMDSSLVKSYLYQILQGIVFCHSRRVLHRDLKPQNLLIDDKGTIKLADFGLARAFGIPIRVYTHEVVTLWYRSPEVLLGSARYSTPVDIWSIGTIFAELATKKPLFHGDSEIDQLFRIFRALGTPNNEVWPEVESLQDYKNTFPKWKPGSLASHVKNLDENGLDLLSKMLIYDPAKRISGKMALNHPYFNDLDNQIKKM
UniProt P16794: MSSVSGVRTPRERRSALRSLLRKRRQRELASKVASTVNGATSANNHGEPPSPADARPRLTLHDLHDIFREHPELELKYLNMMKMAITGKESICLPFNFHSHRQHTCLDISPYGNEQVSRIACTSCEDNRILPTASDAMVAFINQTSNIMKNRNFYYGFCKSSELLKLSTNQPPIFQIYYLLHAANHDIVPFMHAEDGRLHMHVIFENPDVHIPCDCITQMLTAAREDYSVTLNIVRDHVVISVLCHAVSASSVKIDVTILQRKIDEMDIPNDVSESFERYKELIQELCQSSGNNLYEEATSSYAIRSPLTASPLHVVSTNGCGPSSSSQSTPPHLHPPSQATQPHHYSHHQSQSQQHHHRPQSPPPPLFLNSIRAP

Legend:
[1] = molecular target: HCMV pUL50, tagged version (Figure 1) (HCMV) (UniProt P16791); assay: cross-linking + co-IP
[2] = molecular target: HCMV pUL50, tagged version (Figure 1) (HCMV) (UniProt P16791); assay: cross-linking
[3] = molecular target: CDK1-HA (overexpressed) (human) (UniProt P06493); assay: cross-linking + co-IP
[4] = molecular target: CDK1-HA (overexpressed) (human) (UniProt P06493); assay: co-IP

Substance	binding [1]	binding [2]	binding [3]	binding [4]
HCMV pUL53, tagged version (Figure 1) (from UniProt P16794 1-376)	binds	binds	–	–
pUL50-V5 (from UniProt P16791 1-397)	–	–	binds	–
pUL53-His (from UniProt P16794 1-376)	–	–	binds	binds
